# PubChem BioAssay AID686943, Drosophila RNAi Screening Center | 2013
# Assay: 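Fly genes whose loss alters ERK activation after insulin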 (primary screen)
# Cells: Drosophila S2R+ haemocyte-like cells expressing YFP-tagged ERK (Rolled)
# Reagents: long dsRNA against Drosophila genes
# Treatment: insulin stimulation versus unstimulated cells; dose and duration not given
# Measurement: 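Per-plate z-scores of phospho-ERK immunostaining normalised to YFP-tagged ERK, measured with and without insulin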
# Reading the numbers: replicate 1, z-score of dpERK with insulin and replicate 2, z-score of dpERK with insulin: higher = more active ERK per ERK-YFP after insulin; replicate 1, z-score of dpERK under basal conditions: higher = more basal active ERK per ERK-YFP
# The screen tested about 23,000 reagents; this is an unselected part of those that have a named target and a result. 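Extra replicates exist only for a retested subset of genes; insulin dose and duration not given; both raised and lowered dpERK matter.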 A plus sign joins genes that one reagent is predicted to hit. Further read-outs or replicates are left out here. Not stated in the record: the amount of reagent, the time to read-out.
target,dsRNA,"replicate 1, z-score of dpERK with insulin","replicate 2, z-score of dpERK with insulin","replicate 1, z-score of dpERK under basal conditions"
CG44836,DRSC09915,-0.18,0.35,0.18
CG9173,DRSC08635,-0.38,0.45,-1.24
CG32668,DRSC18879,1.08,0.34,1.71
mex1,DRSC11368,0.05,-0.17,1.91
Pglym78,DRSC16787,1.13,-0.4,-0.37
Kal1,DRSC15983,0.41,-0.71,-0.69
CG43327 + CG43328,DRSC05640,0.15,0.45,-0.14
Dbp73D,DRSC11142,-0.39,-0.09,-0.99
CG4781,DRSC04488,1.93,0.49,0.7
Obp46a,DRSC06220,0.12,-0.53,-0.4
Dh31,DRSC02196,0.12,2.85,1.3
CG3323,DRSC18303,-0.1,-0.32,0.39
Tsp,DRSC02144,-0.24,-0.18,-0.22
Tsp,DRSC02145,0.37,0.42,0.2
Taf1,DRSC12607,0.28,1.41,-3.04
CG6441,DRSC02957,-0.35,0.07,-1.3
Gos28,DRSC16292,0.94,0.61,0.7
Gos28,DRSC22859,0.82,0.44,0.47
CG34290,DRSC13660,0.15,0.39,0.57
rau,DRSC03125,-0.02,-0.15,-0.08
CAH5,DRSC15372,0.52,0,0.02
Ir76a,DRSC10987,0.05,-0.08,0.53

7 entries already listed, sorted by “replicate 1, z-score of dpERK with insulin”, highest first:
target,dsRNA,"replicate 1, z-score of dpERK with insulin","replicate 2, z-score of dpERK with insulin","replicate 1, z-score of dpERK under basal conditions"
Pglym78,DRSC16787,1.13,-0.4,-0.37
CG32668,DRSC18879,1.08,0.34,1.71
Kal1,DRSC15983,0.41,-0.71,-0.69
CG43327 + CG43328,DRSC05640,0.15,0.45,-0.14
mex1,DRSC11368,0.05,-0.17,1.91
CG44836,DRSC09915,-0.18,0.35,0.18
CG9173,DRSC08635,-0.38,0.45,-1.24

The results go on:
target,dsRNA,"replicate 1, z-score of dpERK with insulin","replicate 2, z-score of dpERK with insulin","replicate 1, z-score of dpERK under basal conditions"
Oscillin,DRSC03001,-0.3,0.4,1.81
Dhps,DRSC10948,1.63,0.08,-0.63
Dad,DRSC16642,0.02,-0.97,-1.34
NC2alpha,DRSC04059,-0.5,1.05,-0.21
CG11858,DRSC14412,1.8,-0.15,0.67
Not3,DRSC04908,-4.58,-3.62,-0.81
CG5114,DRSC10482,-0.14,-1.75,-1.61
CG6403,DRSC16033,0.71,0.09,-0.2
CG3626,DRSC18318,0.45,-0.55,1.29
CG7849,DRSC04895,0.17,0.54,-0.38
msopa,DRSC11895,-6.89,-4.58,-2.23
CG30324,DRSC22655,0.07,0.44,-0.12
slam,DRSC03240,0.17,-0.22,1.07
EndoB,DRSC07345,-1.93,-0.04,-0.68
CG31673,DRSC03207,-0.6,0.33,1.38
ths,DRSC06153,-0.92,-3.52,-2.5
CG34236,DRSC05435,1,0.52,0.6
